Source: article PMC8839081 (Molecules, 2022)
“And” between values parts separate entries of the source, which are not always exact repeats. Identical values can stand only once.

These compounds were tested on murine macrophages (cell line J774) (assay: Cytotoxicity on murine macrophages (WST-1), used for the selectivity index). Conditions: J774 macrophages vs bloodstream T. b. brucei.
Type: cell-based, Mouse
With COC(=O)C1C2C=CC(C)(C3OC(C)(C)OC23)N1CCc1c[nH]c2ccccc12 [Compound 6, (1S, 3R, 4S, 5R, 6S)-Methyl N-(2-(3-indolyl)ethyl)-1-methyl-5,6-isopropylidendioxy-2-azabicycle[2.2.2]-7-octenen-3-carboxylate] the “SI (ratio EC50 murine macrophage/EC50 T. b. brucei)” value was > 12. For CC(C)C(C)(C)[Si](C)(C)OCC1C2C=CC(C)(C3OC(C)(C)OC23)N1CCc1c[nH]c2ccccc12 [Compound 11, (1S, 3R, 4S, 5S, 6R)-N-(2-(3-indolyl)ethyl)-1-methyl-3-(dimethyl(1,1,2-trimethylpropyl)silyloxy)methyl-5,6-isopropylidendioxy-2-azabicycle[2.2.2]-7-octene], the “SI (ratio EC50 murine macrophage/EC50 T. b. brucei)” value was 4 and 3.9. CC1(C)OC2C3C=CC(C)(C2O1)N(CCc1c[nH]c2ccccc12)C3COCc1ccccc1 [Compound 14, (1S, 3R, 4S, 5S, 6R)-N-(2-(3-indolyl)ethyl)-1-methyl-3-benzyloximethyl-5,6-isopropylidendioxy-2-azabicycle[2.2.2]-7-octene] was tested, and the “SI (ratio EC50 murine macrophage/EC50 T. b. brucei)” value was 30 and 29.6. For CC1(C)OC2C3C=CC(C)(C2O1)N(CCc1c[nH]c2ccccc12)C3COC(=O)Cc1c[nH]c2ccccc12 [Compound 15, (1S, 3R, 4S, 5S, 6R)-N-(2-(3-indolyl)ethyl)-1-methyl-3-(2-(1H-3-indolyl)acetyloxy)methyl-5,6-isopropylidendioxy-2-azabicycle[2.2.2]-7-octene], the “SI (ratio EC50 murine macrophage/EC50 T. b. brucei)” value was 6 and 5.7.
